In patent US9771395B2, “Enhanced influenza hemagglutinin binders” (UNIVERSITY OF WASHINGTON, priority 2014, dated 2017):
Some entries share one result that the patent states for a list of compounds.

B1: HB36.6: HA stem binding protein, variant of HB36.5 with nine substitutions (SEQ ID NO: 3); FLAG-tagged in the studies (protein)
chain: SNAMDGQQLNRLLLENIGAWDPFGLGKDAYTYQAAEVLKAVYETNRAFDLAMRIHWIYNFAFKRRIPFARTQKLARRLLELKQAASSPLP
modifications: FLAG tag; (1)..(5) optionally absent; (86)..(90) optionally absent
notes: FLAG-tagged in the studies
B2: 1u84: scaffold protein (PDB ID 1u84) that HB36.6 is modeled on; non-protective control (protein)
chain: SNAMDGQQLNRLLLEWIGAWDPFGLGKDAYDVEAASVLQAVYETEDARTLAARIQSIYEFAFDEPIPFPHCLKLARRLLELKQAASCPLP

Assay: Bio-Plex inflammatory cytokines in lung homogenates after protein administration (no infection)
Format: in vivo, BALB/c mice
Conditions: single IN dose 6.0 mg/kg, low levels of cytokines
Method: The concentrations of cytokines in lung tissue were measured. […] Lungs were thawed, weighed and lysed using the Bio-Plex® Cell Lysis Kit (Bio-Rad, Hercules, Calif.). The levels of interleukin (IL)-6, IL-10. IL-12(p70), interferon (IFN)-γ, and tumor necrosis factor (TNF)-α in the lysate were measured using a Bio-Plex) multiplex bead array kit (Bio-Rad, Hercules, Calif.). The Bio-Plex® assay was performed in accordance with the manufacturer's instructions.

Molecule	time of cytokine peak post-administration [h]
B1	2 to 24
B2	2 to 24
